# Reference: PMC10298087
# Results are given in words; binding and its absence hold for the method and conditions named. In cells and extracts the contact can be indirect. These calls come from enrichment with a bait or labelling near it, and not all partners need be listed.
# B1: ZNF614 (protein, UniProt Q8N883 1-585)
# chain: MIKTQESLTLEDVAVEFSWEEWQLLDTAQKNLYRDVMVENYNHLVSLGYQTSKPDVLSKLAHGQEPWTTDAKIQNKNCPGIGKVDSHLQEHSPNQRLLKSVQQCNGQNTLRNIVHLSKTHFPIVQNHDTFDLYRKNLKSSLSLINQKRRHGINNPVEFIGGEKTLLHGKHERTHTKTRFSENAKCIHTKFQVFKHQRTQKIEKPHACIECEQTFLRKSQLIYHENICIQENPGSGQCEKLSRSVLFTKHLKTNTTDKICIPNEYRKGSTVKSSLITHQQTHTEEKSYMCSECGKGFTMKRYLIAHQRTHSGEKPYVCKECGKGFTVKSNLIVHQRTHTGEKPYICSECGKGFTMKRYLVVHQRTHTGEKPYMCSECGKGFTVKSNLIVHQRSHTGEKSYICSECGKGFTVKRTLVIHQRTHTGEKSYICNECGKGFTTKRTLIIHQRTHTGEKPYECNECGKAFSQKICLIQHERCHTGKTPFVCTECGKSYSHKYGLITHQRIHTGEKPYECNECGKAFTTKSVLNVHQRTHTGERPYGCSDCEKAFSHLSNLVKHKKMHTREMGRISQVENSCNGESQLLPYK
# B2: ZNF550 (protein, UniProt Q7Z398 1-422)
# chain: MAETKDAAQMLVTFKDVAVTFTREEWRQLDLAQRTLYREVMLETCGLLVSLGHRVPKPELVHLLEHGQELWIVKRGLSHATCAGDRAQVHTREPTTYPPVLSERAFLRGSLTLESSTSSDSRLGRARDEEGLLEMQKGKVTPETDLHKETHLGKVSLEGEGLGTDDGLHSRALQEWLSADVLHECDSQQPGKDALIHAGTNPYKCKQCGKGFNRKWYLVRHQRVHTGMKPYECNACGKAFSQSSTLIRHYLIHTGEKPYKCLECGKAFKRRSYLMQHHPIHTGEKPYECSQCRKAFTHRSTFIRHNRTHTGEKPFECKECEKAFSNRAHLIQHYIIHTGEKPYDCMACGKAFRCSSELIQHQRIHTGEKPYECTQCGKAFHRSTYLIQHSVIHTGEMPYKCIECGKAFKRRSHLLQHQRVHT
# B3: ZNF567 (protein, UniProt Q8N184 1-647)
# chain: MAQGSVSFNDVTVDFTQEEWQHLDHAQKTLYMDVMLENYCHLISVGCHMTKPDVILKLERGEEPWTSFAGHTCLEENWKAEDFLVKFKEHQEKYSRSVVSINHKKLVKEKSKIYEKTFTLGKNPVNSKNLPPEYDTHGRILKNVSELIISNLNPARKRLSEYNGYGKSLLSTKQETTHPEVKSHNQSARAFSHNEVLMQYQKTETPAQSFGYNDCEKSFLQRGGLITHSRPYKGENPSVYNKKRRATNIEKKHTCNECGKSFCRKSVLILHQGIHSEEKPYQCHQCGNAFRRKSYLIDHQRTHTGEKPFVCNECGKSFRLKTALTDHQRTHTGEKSYECLQCRNAFRLKSHLIRHQRTHTGEKPYECNDCGKSFRQKTTLSLHQRIHTGEKPYICKECGKSFHQKANLTVHQRTHTGEKPYICNECGKSFSQKTTLALHEKTHNEEKPYICSECGKSFRQKTTLVAHQRTHTGEKSYECPHCGKAFRMKSYLIDHHRTHTGEKPYECNECGKSFSQKTNLNLHQRIHTGEKPYVCNECGKSFRQKATLTVHQKIHTGQKSYECPQCGKAFSRKSYLIHHQRTHTGEKPYKCSECGKCFRQKTNLIVHQRTHTGEKPYVCNECGKSFSYKRNLIVHQRTHKGENIEMQ
# B4: ZNF569 (protein, UniProt Q5MCW4 1-686)
# chain: MTESQGTVTFKDVAIDFTQEEWKRLDPAQRKLYRNVMLENYNNLITVGYPFTKPDVIFKLEQEEEPWVMEEEVLRRHWQGEIWGVDEHQKNQDRLLRQVEVKFQKTLTEEKGNECQKKFANVFPLNSDFFPSRHNLYEYDLFGKCLEHNFDCHNNVKCLMRKEHCEYNEPVKSYGNSSSHFVITPFKCNHCGKGFNQTLDLIRHLRIHTGEKPYECSNCRKAFSHKEKLIKHYKIHSREQSYKCNECGKAFIKMSNLIRHQRIHTGEKPYACKECEKSFSQKSNLIDHEKIHTGEKPYECNECGKAFSQKQSLIAHQKVHTGEKPYACNECGKAFPRIASLALHMRSHTGEKPYKCDKCGKAFSQFSMLIIHVRIHTGEKPYECNECGKAFSQSSALTVHMRSHTGEKPYECKECRKAFSHKKNFITHQKIHTREKPYECNECGKAFIQMSNLVRHQRIHTGEKPYICKECGKAFSQKSNLIAHEKIHSGEKPYECNECGKAFSQKQNFITHQKVHTGEKPYDCNECGKAFSQIASLTLHLRSHTGEKPYECDKCGKAFSQCSLLNLHMRSHTGEKPYVCNECGKAFSQRTSLIVHMRGHTGEKPYECNKCGKAFSQSSSLTIHIRGHTGEKPFDCSKCGKAFSQISSLTLHMRKHTGEKPYHCIECGKAFSQKSHLVRHQRIHTH
# B5: ZNF644 (protein, UniProt Q9H582 1-1327)
# chain: MRSFLQQDVNKTKSRLNVLNGLANNMDDLKINTDITGAKEELLDDNNFISDKESGVHKPKDCQTSFQKNNTLTLPEELSKDKSENALSGGQSSLFIHAGAPTVSSENFILPKGAAVNGPVSHSSLTKTSNMNKGSVSLTTGQPVDQPTTESCSTLKVAADLQLSTPQKASQHQVLFLLSDVAHAKNPTHSNKKLPTSASVGCDIQNSVGSNIKSDGTLINQVEVGEDGEDLLVKDDCVNTVTGISSGTDGFRSENDTNWDPQKEFIQFLMTNEETVDKAPPHSKIGLEKKRKRKMDVSKITRYTEDCFSDSNCVPNKSKMQEVDFLEQNEELQAVDSQKYALSKVKPESTDEDLESVDAFQHLIYNPDKCGEESSPVHTSTFLSNTLKKKCEESDSESPATFSTEEPSFYPCTKCNVNFREKKHLHRHMMYHLDGNSHFRHLNVPRPYACRECGRTFRDRNSLLKHMIIHQERRQKLMEEIRELKELQDEGRSARLQCPQCVFGTNCPKTFVQHAKTHEKDKRYYCCEECNFMAVTENELECHRGIAHGAVVKCPMVTSDIAQRKTQKKTFMKDSVVGSSKKSATYICKMCPFTTSAKSVLKKHTEYLHSSSCVDSFGSPLGLDKRKNDILEEPVDSDSTKTLTKQQSTTFPKNSALKQDVKRTFGSTSQSSSFSKIHKRPHRIQKARKSIAQSGVNMCNQNSSPHKNVTIKSSVDQKPKYFHQAAKEKSNAKANSHYLYRHKYENYRMIKKSGESYPVHFKKEEASSLNSLHLFSSSSNSHNNFISDPHKPDAKRPESFKDHRRVAVKRVIKESKKESSVGGEDLDSYPDFLHKMTVVVLQKLNSAEKKDSYETEDESSWDNVELGDYTTQAIEDETYSDINQEHVNLFPLFKSKVEGQEPGENATLSYDQNDGFYFEYYEDTGSNNFLHEIHDPQHLETADASLSKHSSVFHWTDLSLEKKSCPYCPATFETGVGLSNHVRGHLHRAGLSYEARHVVSPEQIATSDKMQHFKRTGTGTPVKRVRKAIEKSETTSEHTCQLCGGWFDTKIGLSNHVRGHLKRLGKTKWDAHKSPICVLNEMMQNEEKYEKILKALNSRRIIPRPFVAQKLASSDDFISQNVIPLEAYRNGLKTEALSVSASEEEGLNFLNEYDETKPELPSGKKNQSLTLIELLKNKRMGEERNSAISPQKIHNQTARKRFVQKCVLPLNEDSPLMYQPQKMDLTMHSALDCKQKKSRSRSGSKKKMLTLPHGADEVYILRCRFCGLVFRGPLSVQEDWIKHLQRHIVNANLPRTGAGMVEVTSLLKKPASITETSFSLLMAEAAS
# B6: ZNF655 (protein, UniProt Q8N720 1-491)
# chain: MEEIPAQEAAGSPRVQFQSLETQSECLSPEPQFVQDTDMEQGLTGDGETREENKLLIPKQKISEEVHSYKVRVGRLKHDITQVPETREVYKSEDRLERLQEILRKFLYLEREFRQITISKETFTSEKNNECHEPEKSFSLDSTIDADQRVLRIQNTDDNDKYDMSFNQNSASGKHEHLNLTEDFQSSECKESLMDLSHLNKWESIPNTEKSYKCDVCGKIFHQSSALTRHQRIHTREKPYKCKECEKSFSQSSSLSRHKRIHTREKPYKCEASDKSCEASDKSCSPSSGIIQHKKIHTRAKSYKCSSCERVFSRSVHLTQHQKIHKEMPCKCTVCGSDFCHTSYLLEHQRVHHEEKAYEYDEYGLAYIKQQGIHFREKPYTCSECGKDFRLNSHLIQHQRIHTGEKAHECNECGKAFSQTSCLIQHHKMHRKEKSYECNEYEGSFSHSSDLILQQEVLTRQKAFDCDVWEKNSSQRAHLVQHQSIHTKENS
# B7: ZNF697 (protein, UniProt Q5TEC3 1-545)
# chain: MKQEDNQGVCAHQDSEDKGMGSDFEDSEDREGDPEEREMGSNPHDTNKREGHPEPEMGSNPQDSRHREAVPDICTEGQLSEEEGVSVRGEEDDQSGVADMAMFPGLSESDSISRSLREDDDESAGENRLEEEEEQPAPPVLPWRRHLSLGSRHRGDKPAHRRFHRLHHPMAVDLGELDSLVASIMDAPTICPDCGESFSPGAAFLQHQRIHRLAEAAAAASLEPFGLAGECDAMVGMMGVGVAGGFGAGPPLARPPREKPFRCGECGKGFSRNTYLTNHLRLHTGERPNLCADCGKSFSWRADLLKHRRLHTGEKPYPCPECGEAFSLSSHLLSHRRAHAAASGAGAAALRPFACGECGKGFVRRSHLANHQRIHTGEKPHGCGECGKRFSWRSDLVKHQRVHTGEKPYMCSECGETFSVSSHLFTHKRTHSGERPYVCRECGKGFGRNSHLVNHLRVHTGEKPFRCGQCEKRFSDFSTLTQHQRTHTGEKPYTCIECGKSFIQSSHLIRHRRIHTGNKPHKCAGCGKGFRYKTHLAQHQKLHLC
# Legend:
# [1] = molecular target: T1, TRIM28-K304Q (endogenous, knock-in K562 clone Q1) (human (endogenous in K562)) (UniProt Q13263); assay: affinity purification with mass spectrometry; IP of endogenous TRIM28 or TRIM28-K304Q from K562 cells with anti-TRIM28-N-conjugated protein A beads; washed, eluted with the antibody-generating peptide; MS (LTQ-Orbitrap Velos, Mascot)
# T1 sequence: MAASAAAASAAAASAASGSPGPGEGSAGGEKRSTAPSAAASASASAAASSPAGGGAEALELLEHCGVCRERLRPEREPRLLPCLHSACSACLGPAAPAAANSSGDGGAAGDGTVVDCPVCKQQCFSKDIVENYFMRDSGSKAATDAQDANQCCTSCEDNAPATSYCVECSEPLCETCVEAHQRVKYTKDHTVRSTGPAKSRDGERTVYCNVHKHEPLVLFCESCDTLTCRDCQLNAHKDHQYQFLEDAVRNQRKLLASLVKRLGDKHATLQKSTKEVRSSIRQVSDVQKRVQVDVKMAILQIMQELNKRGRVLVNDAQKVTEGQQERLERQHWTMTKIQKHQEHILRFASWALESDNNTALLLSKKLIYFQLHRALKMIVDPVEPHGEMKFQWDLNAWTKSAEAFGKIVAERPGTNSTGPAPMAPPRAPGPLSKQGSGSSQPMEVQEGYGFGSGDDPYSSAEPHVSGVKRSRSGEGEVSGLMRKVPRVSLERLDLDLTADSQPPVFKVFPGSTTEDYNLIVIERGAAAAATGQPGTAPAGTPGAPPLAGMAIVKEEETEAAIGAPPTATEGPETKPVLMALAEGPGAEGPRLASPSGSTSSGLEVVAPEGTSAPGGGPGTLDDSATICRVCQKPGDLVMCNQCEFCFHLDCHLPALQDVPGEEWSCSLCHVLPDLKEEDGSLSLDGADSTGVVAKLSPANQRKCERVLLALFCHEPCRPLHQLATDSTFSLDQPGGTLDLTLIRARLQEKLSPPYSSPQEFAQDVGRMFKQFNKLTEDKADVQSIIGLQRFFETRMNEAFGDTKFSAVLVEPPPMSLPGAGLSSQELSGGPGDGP
# [2] = molecular target: wild-type TRIM28 (endogenous, K562 cells) (human (endogenous in K562)) (UniProt Q13263); assay: as above
Binder,binding [1],binding [2]
B1,binds,binds
B2,–,binds
B3,–,binds
B4,–,binds
B5,–,binds
B6,–,binds
B7,–,binds
